Measured values published in PubChem BioAssay AID2685 (National Center for Advancing Translational Sciences (NCATS), 2010).
The list shows a part of the results. The main result of the screen is listed elsewhere. These columns were measured beside it and carry no call. Most of these compounds were active or inconclusive in the main read-out, so they are no random draw. Potencies come from curve fits of mixed quality, noted in brackets.

Assay: qHTS Assay for Lipid Storage Modulators in Drosophila S3 Cells;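 on cell number change: cells counted by Cell Tracker Red CMTPX staining in the red channel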
Conditions: BODIPY lipid droplet fluorescence, 18-24 h; for cell number change: measured here: cell count max response, cells fed with added oleic acid
Method in brief: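 Drosophila S3 cells got compounds at several concentrations plus oleic acid (400 uM solution). Laser-scanning cytometry with 488 nm excitation read lipid droplets at 500-530 nm and cells at 575-640 nm. Percent activity was relative to 20 uM Triacsin C.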

[1] = measured here: lipid fluorescence (Fed channel) AC50, cells fed with added oleic acid
[2] = measured here: cell number channel AC50, cells fed with added oleic acid

SMILES	cell number change [%]	AC50 [1]	AC50 [2]
Cc1c(C(=O)NCCSCc2c(Cl)cccc2Cl)cccc1[N+](=O)[O-]	3.81	0.0731 µM [rising, full curve, poor fit]	
COc1ccc(-c2n[nH]c(C)c2-c2ccccc2OC)c(O)c1	-6.94		
Cc1c(C(=O)O)[nH]c2c1C(=O)CC(c1ccc(Cl)cc1)C2 (configuration not stated)	11.8		0.164 µM [falling, full curve, poor fit]
COc1ccc(F)c(-c2nc(CN3CCC(c4ccccc4)CC3)c(C)o2)c1	-10.2	6.51 µM [falling, single point]	6.51 µM [falling, single point]
O=c1[nH]c(/C=C\c2cccc(Cl)c2)nc(O)c1[N+](=O)[O-]	20.4	29.1 µM [rising, single point]	0.00411 µM [rising, full curve, poor fit]
O=C(CN1CCN(c2ccccn2)CC1)Nc1ccc(Br)cc1	10.3	4.61 µM [rising, full curve, poor fit]	
O=C(N1CCOCC1)N(CCN1CCOCC1)Cc1cccc(Cl)c1	17.7		4.11 µM [rising, single point]
O=C(Nc1nc2ccc(Oc3ccccc3)cc2s1)c1cc([N+](=O)[O-])ccc1N1CCOCC1	-21.6	13 µM [falling, single point]	
CCc1cc(-c2n[nH]c(C)c2-c2nc3ccccc3s2)c(O)cc1OCC(=O)NN	-35.9		3.66 µM [falling, full curve]
CSc1ccccc1C(=O)NCCSc1ccccc1	35.5	23.1 µM [rising, partial curve]	0.82 µM [rising, full curve]
CC(C1CC2CCC1C2)n1c(-c2ccco2)n[nH]c1=S (configuration not stated)		3.26 µM [rising, partial curve]	2.31 µM [rising, partial curve]
COc1cccc(C(=O)Nc2c3c(nn2-c2cccc(C)c2C)CS(=O)(=O)C3)c1OC		0.82 µM [rising, partial curve]	1.64 µM [rising, partial curve, poor fit]
CC(=O)Oc1ccc(C(=O)Nc2ccc3c(c2)C(=O)N(CCC(=O)O)C3=O)cc1	-13.3	0.731 µM [falling, full curve]	0.103 µM [falling, full curve, poor fit]
Cc1ccc(C(=O)OC2=CC(=O)CC(C)(C)C2)cc1	6.61	29.1 µM [falling, single point]	
COc1ccc(-c2nc3ncccc3o2)cc1NC(=O)c1ccco1	-26.9		

An excerpt of these results, in CSV form:
SMILES,cell number change [%],AC50 [1],AC50 [2]
COc1ccc(-c2n[nH]c(C)c2-c2ccccc2OC)c(O)c1,-6.94,,
Cc1c(C(=O)O)[nH]c2c1C(=O)CC(c1ccc(Cl)cc1)C2 (configuration not stated),11.8,,"0.164 µM [falling, full curve, poor fit]"
